Where “and” joins values, the source holds several entries; their conditions need not be identical. Identical values can stand only once. Among all 340,000 compounds or so, about 4,500 (1.3%) were called active. Inconclusive means that the source gave no clear call. Such entries were picked first, then a sample of the others. Calls come from the whole dose curve; as a rule, active = well fitted inhibition curve with a large enough effect; inconclusive = small, poorly fitted or top-dose-only effect, or another doubt; inactive = no such curve, though single readings can be large or run the other way. Where the call is inconclusive, the potency comes from a doubtful curve fit. Some compounds were tested as several samples or in several runs, with calls that do not always agree.
What follows are molecules tested against DNA polymerase beta (Homo sapiens) (UniProt P06746) (assay: qHTS Assay for Inhibitors of DNA Polymerase Beta). Details: Pol beta primer extension/strand displacement, fluorescence kinetic; activity change, negative = inhibition: at 114 µM (top of the series).
Summary of the method: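 10 nM enzyme + cpd, 15 min RT; start with substrate 50 nM final; read 0 min and after 10 min RT. Corrected, normalized data; 4-parameter Hill curve fit.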
% is set by controls: 0 for no effect and ±100 for the full control effect; potency is the fitted concentration of half-maximal effect.

Compound | Potency | activity change, negative = inhibition
COc1cccc(OCc2nc3c4cnn(-c5ccccc5)c4ncn3n2)c1 | inconclusive: 89.1 µM [inhibitor, single point] | –
CCC(=O)Nc1ccccc1-c1nc2ccccc2n(CC(=O)c2ccc(Cl)cc2)c1=O | inconclusive: 25.1 µM [inhibitor, partial curve] | –
COc1cc(C)c(CN2CCC(n3nccc3NC(=O)C3CC3)CC2)cc1C | inconclusive: 4.47 µM [inhibitor, single point] | –
CC(OC(=O)c1ccc2c(c1)C(=O)N(Cc1ccncc1)C2=O)C(=O)Nc1cccc(Cl)c1Cl (stereo not given) | inactive | –
CC1=C(C(=O)OCc2ccccc2)C(c2ccc(-c3ccccc3)cc2)NC(=O)N1CCCCCC(=O)O (stereo not given) | inconclusive: 89.1 µM [inhibitor, single point] | –
CC(=O)CCc1c(C)c2cccc(C)c2[nH]c1=O | inconclusive: 100 µM [inhibitor, single point] | –
COC(=O)N/N=C/c1ccc(-c2cc(Cl)cc(Cl)c2)o1 | inactive | –
CCOC(=O)c1ccc(N2C(=O)c3n[nH]c(-c4ccco4)c3C2c2ccc(OCC)cc2)cc1 (stereo not given) | – | inconclusive: -38.6% [inhibitor]
O=C(O)c1ccc(NC(=S)NC(=O)c2ccc3ccccc3c2)cc1 | inactive | –
O=C(O)CC1S/C(=N/N=C/c2ccc(-c3ccccc3[N+](=O)[O-])o2)NC1=O (stereo not given) | inconclusive: 25.1 µM [inhibitor, partial curve] | –
Cc1cc(C(=O)CN2C(=O)NC3(CCCc4ccccc43)C2=O)c(C)n1Cc1ccco1 (stereo not given) | inconclusive: 89.1 µM [inhibitor, single point] | –
CCN1/C(=C/C(C)=C/c2sc3ccccc3[n+]2CC)Sc2ccccc21 | active: 35.5 µM | –
CC12CCC(C(N)=O)(c3nc4ccccc4nc31)C2(C)C (stereo not given) | active: 89.1 µM | –
O=C1/C(=C/c2ccc3c(c2)OCO3)Oc2cc(OCC(=O)N3CCC[C@H]3C(=O)O)ccc21 | inconclusive: 35.5 µM [inhibitor, single point] | –
CCN(C(=O)CSc1ncnc2sc(C)c(C)c12)C1CCS(=O)(=O)C1 (stereo not given) | inconclusive: 0.316 µM [inhibitor, full curve] | –
Cc1c(Cl)cccc1NC(=O)c1ccc2c(c1)CCN2S(=O)(=O)c1ccccc1 | inactive | –
Cc1ccc(C(=O)Nc2ccc(C(=O)N/N=C/c3cccnc3)cc2)cc1 | inconclusive: 89.1 µM [inhibitor, single point] | –
O=C(Nc1ccc2c(c1)nc1n2CCOC1)c1ccco1 | inactive | –
CCOC(=O)c1c(C)n(C)c2ccc(O)c(CN3CCC(C)CC3)c12 | inconclusive: 0.1 µM [inhibitor, full curve, poor fit] | –
O=C(Nc1cccc(Cl)c1Cl)c1cc(S(=O)(=O)NCc2ccc3c(c2)OCO3)ccc1F | inconclusive: 89.1 µM [inhibitor, single point] | –
CCOC(=O)N1CCN(C(=O)c2cc3n(n2)C(C(F)(F)F)CC(c2ccc4c(c2)OCO4)N3)CC1 (stereo not given) | inconclusive: 79.4 µM [inhibitor, single point] | –
CC(CCc1ccc(O)cc1)NCc1ccc(Cl)cc1Cl (stereo not given) | inconclusive: 89.1 µM [inhibitor, single point] | –
CC(C)(C)C(=O)NC(=S)Nc1cccc(C(=O)O)c1 | inconclusive: 25.1 µM [inhibitor, partial curve, poor fit] | –
Cc1cccc(Nc2ccc3nonc3c2[N+](=O)[O-])c1C | inconclusive: 0.224 µM [inhibitor, full curve, poor fit] | –

Compound | Potency | activity change, negative = inhibition
Cc1ccc2nc(/C(C#N)=C/c3ccc(-c4cccc([N+](=O)[O-])c4)o3)[nH]c2c1 | active: 5.01 µM | –
O=C(O)c1cccc(CSc2n[nH]c(-c3ccc(Cl)cc3Cl)n2)c1 | inconclusive: 0.1 µM [inhibitor, full curve, poor fit] | –
Cc1sc(NC(=O)/C=C/c2ccco2)c(C(=O)O)c1C | inconclusive: 17.8 µM [inhibitor, full curve, poor fit] | –
O=C1C2ON(c3ccc(Br)cc3)C(c3cccnc3)C2C(=O)N1C1CCCCC1 (stereo not given) | inconclusive: 100 µM [inhibitor, single point] | –
COc1cccc(NC(=O)C(=O)NCC(c2ccc3c(c2)OCO3)N2CCN(C)CC2)c1 (stereo not given) | inactive | –
O=C(NCc1ccc(Cl)cc1)C1CCN(S(=O)(=O)c2cc([N+](=O)[O-])ccc2Cl)CC1 | inactive | –
Oc1ccccc1-c1nc(NCCN2CCOCC2)c2ccccc2n1 | inconclusive: 39.8 µM [inhibitor, single point] | –
Oc1cccc(/C=N/Nc2ccc(Cl)nn2)c1O | active: 39.8 µM | –
Cc1cc(C)nc(SCc2ccc(C(=O)N/N=C/c3ccc(C(=O)O)cc3)cc2)n1 | inactive | –
CC1CCN(S(=O)(=O)c2ccc(C(=O)Nc3nnc(-c4ccccn4)o3)cc2)CC1 | inconclusive: 79.4 µM [inhibitor, single point] | –
O=C(CSc1ccc(-c2ccco2)nn1)c1ccccc1 | active: 11.2 µM | –
CC(C)C(NC(=O)c1ccc(Cl)cc1)C(=O)NCC1CCCO1 (stereo not given) | inconclusive: 89.1 µM [inhibitor, single point] | –
O=C(C(=O)N1CCCC1CO)N1CCCC1CO (stereo not given) | inconclusive: 89.1 µM [inhibitor, single point] | –
O=C(CCNC(=O)c1ccc([N+](=O)[O-])cc1)N/N=C/c1ccc(F)cc1 | inconclusive: 89.1 µM [inhibitor, single point] | –
CC(=O)Nc1ccc(NS(=O)(=O)c2c(C(=O)N3CCC(C)CC3)c(C)n(C)c2C)cc1 | inactive | –
Cc1ccc(NC(=O)CN2CCN(C)CC2)cc1Br | inactive | –
c1ccc2sc(C3CCN(Cc4nnnn4Cc4ccc5c(c4)OCO5)CC3)nc2c1 | inconclusive: 89.1 µM [inhibitor, single point] | –
COc1ccc(S(=O)(=O)Nc2ccc(S(=O)(=O)Nc3ccc(F)cc3)cc2)cc1C | inactive | –
O=C(CCn1c(=O)c2sccc2n(CC(=O)NCc2ccco2)c1=O)NCc1ccccc1 | inactive | –
CC(C)c1cc(C(=O)NCc2ccco2)no1 | inconclusive: 44.7 µM [inhibitor, partial curve] | –
Cc1ccc2c(c1)c(Sc1ccccc1)c(CC(=O)O)n2C | inconclusive: 70.8 µM [inhibitor, single point] | –
Cc1nn2c(C)c(C(=O)NCc3ccco3)cnc2c1-c1ccccc1 | inactive | –
Cc1ccc(NS(=O)(=O)c2coc(C(N)=O)c2)cc1F | inconclusive: 89.1 µM [inhibitor, single point] | –

Compound | Potency | activity change, negative = inhibition
CCOc1cc(C(=O)Nc2ccc(NC(C)=O)cc2)ccc1OCC(=O)N1CCCCC1 | inconclusive: 89.1 µM [inhibitor, single point] | –
COc1ccc(/C=N/Nc2nn3cnnc3c3ccccc23)cc1 | active: 1.78 µM | –
Cc1cccc2sc(N(CCCN(C)C)C(=O)c3ccc4ncsc4c3)nc12 | inactive | –
COc1ccc(NC(=O)CSc2nc(SC)ns2)cc1 | active: 89.1 µM | –
Cc1[nH][nH]c(=O)c1C(c1ccc(-c2ccc(C(=O)O)cc2)o1)c1c(C)[nH][nH]c1=O | active: 25.1 µM | –
O=C(NCCc1ccccc1)C1CCC(Cn2c(=O)c3ccccc3n(Cc3cccnc3)c2=O)CC1 (stereo not given) | inconclusive: 25.1 µM [inhibitor, full curve] | –
CCOCCCNCC(=O)NCC1CCCCC1 | inconclusive: 2.51 µM [inhibitor, single point] | –
CCc1ccc(OCC(=O)NNC(=O)c2ccc(NC(=O)C3CC3)cc2)cc1 | active: 31.6 µM | –
CC(C)COC(=O)CCNc1n[nH]c(=O)[nH]c1=O | inconclusive: 39.8 µM [inhibitor, single point] | –
O=C(CSc1nc2nc(-c3cccs3)cc(C(F)(F)F)c2c(=O)[nH]1)C(F)(F)F | active: 79.4 µM | –
Cc1ccc(Cc2cnc(NC(=O)c3cccs3)s2)cc1 | inconclusive: 0.708 µM [inhibitor, full curve, poor fit] | –
CCc1ccc(-n2nc(C)c3c(C)cc(=O)n(CC(=O)Nc4ccc(C(C)=O)cc4)c32)cc1 | inactive | –
COc1cc(OC)c(NC(=O)N2CC3CCCN3c3ccccc32)cc1Cl (stereo not given) | inconclusive: 28.2 µM [inhibitor, single point] | –
CCCSc1nsc(NC(=O)C(c2ccccc2)c2ccccc2)n1 | inconclusive: 89.1 µM [inhibitor, single point] | –
COc1ccc(OCC(=O)NCC(c2ccc(OC)cc2)N2CCCCC2)cc1 (stereo not given) | inactive and active: 89.1 µM | –
Cc1c(NC(=O)C2CCN(S(=O)(=O)c3cccs3)CC2)c(=O)n(-c2ccccc2)n1C | inconclusive: 0.355 µM [inhibitor, full curve, poor fit] | –
Fc1cnc(N/N=C/c2ccc(-c3ccc(Br)cc3)o2)nc1N1CCOCC1 | inconclusive: 3.98 µM [inhibitor, full curve, poor fit] | –
COc1ccc(-c2csc(NC(=O)CSc3nc(C)nc4sc(C(=O)O)c(C)c34)n2)cc1 | active: 7.08 µM | –
C=CCN1C=CC(=CC=C(C#N)C#N)C=C1 | inconclusive: 0.224 µM [inhibitor, full curve] | –
CCC1CC(CSC(=N)N)OC1=O (stereo not given) | inconclusive: 89.1 µM [inhibitor, single point] | –
Cc1sc2nc(C(C)C)nc(SCC(=O)NCc3ccco3)c2c1C | inconclusive: 15.8 µM [inhibitor, full curve] | –
CCCCn1c(C)cc2c(c1=O)C1O[C@](c3ccsc3)(Cc3cc(OC)c(OC)cc31)O2 | – | inactive: 2.63% [at 22.9 µM]

From PubChem BioAssay AID485314 (National Center for Advancing Translational Sciences (NCATS), 2010)
